Measurements from patent publication US12729225B2, “Non-canonical SWI/SNF complex and uses thereof” (Dana-Farber Cancer Institute, Inc., priority 2018, dated 2026).

B1: SSR1 (protein, UniProt P43307 19-286, looked up)
Translocon-associated protein …: VLFRGGPRGLLAVAQDLTEDEETVEDSIIEDEDDEAEVEEDEPTDLVEDKEEEDVSGEPEASPSADTTILFVKGEDFPANNIVKFLVGFTNKGTEDFIVESLDASFRYPQDYQFYIQNFTALPLNTVVPPQRQATFEYSFIPAEPMGGRPFGLVINLNYKDLNGNVFQDAVFNQTVTVIEREDGLDGETIFMYMFLAGLGLLVIVGLHQLLESRKRKRPIQKVEMGTSSQNDVDMSWIPQETLNQINKASPRRLPRKRAQKRSVGSDE
B2: AGPS (protein, UniProt O00116 59-658, looked up)
Alkyldihydroxyacetonephosphate …: KARRAASAATAAPTATPAAQESGTIPKKRQEVMKWNGWGYNDSKFIFNKKGQIELTGKRYPLSGMGLPTFKEWIQNTLGVNVEHKTTSKASLNPSDTPPSVVNEDFLHDLKETNISYSQEADDRVFRAHGHCLHEIFLLREGMFERIPDIVLWPTCHDDVVKIVNLACKYNLCIIPIGGGTSVSYGLMCPADETRTIISLDTSQMNRILWVDENNLTAHVEAGITGQELERQLKESGYCTGHEPDSLEFSTVGGWVSTRASGMKKNIYGNIEDLVVHIKMVTPRGIIEKSCQGPRMSTGPDIHHFIMGSEGTLGVITEATIKIRPVPEYQKYGSVAFPNFEQGVACLREIAKQRCAPASIRLMDNKQFQFGHALKPQVSSIFTSFLDGLKKFYITKFKGFDPNQLSVATLLFEGDREKVLQHEKQVYDIAAKFGGLAAGEDNGQRGYLLTYVIAYIRDLALEYYVLGESFETSAPWDRVVDLCRNVKERITRECKEKGVQFAPFSTCRVTQTYDAGACIYFYFAFNYRGISDPLTVFEQTEAAAREEILANGGSLSHHHGVGKLRKQWLKESISDVGFGMLKSVKEYVDPNNIFGNRNLL
B3: COPA (protein, UniProt P53621 1-1224, looked up)
Coatomer subunit alpha: MLTKFETKSARVKGLSFHPKRPWILTSLHNGVIQLWDYRMCTLIDKFDEHDGPVRGIDFHKQQPLFVSGGDDYKIKVWNYKLRRCLFTLLGHLDYIRTTFFHHEYPWILSASDDQTIRVWNWQSRTCVCVLTGHNHYVMCAQFHPTEDLVVSASLDQTVRVWDISGLRKKNLSPGAVESDVRGITGVDLFGTTDAVVKHVLEGHDRGVNWAAFHPTMPLIVSGADDRQVKIWRMNESKAWEVDTCRGHYNNVSCAVFHPRQELILSNSEDKSIRVWDMSKRTGVQTFRRDHDRFWVLAAHPNLNLFAAGHDGGMIVFKLERERPAYAVHGNMLHYVKDRFLRQLDFNSSKDVAVMQLRSGSKFPVFNMSYNPAENAVLLCTRASNLENSTYDLYTIPKDADSQNPDAPEGKRSSGLTAVWVARNRFAVLDRMHSLLIKNLKNEITKKVQVPNCDEIFYAGTGNLLLRDADSITLFDVQQKRTLASVKISKVKYVIWSADMSHVALLAKHAIVICNRKLDALCNIHENIRVKSGAWDESGVFIYTTSNHIKYAVTTGDHGIIRTLDLPIYVTRVKGNNVYCLDRECRPRVLTIDPTEFKFKLALINRKYDEVLHMVRNAKLVGQSIIAYLQKKGYPEVALHFVKDEKTRFSLALECGNIEIALEAAKALDDKNCWEKLGEVALLQGNHQIVEMCYQRTKNFDKLSFLYLITGNLEKLRKMMKIAEIRKDMSGHYQNALYLGDVSERVRILKNCGQKSLAYLTAATHGLDEEAESLKETFDPEKETIPDIDPNAKLLQPPAPIMPLDTNWPLLTVSKGFFEGTIASKGKGGALAADIDIDTVGTEGWGEDAELQLDEDGFVEATEGLGDDALGKGQEEGGGWDVEEDLELPPELDISPGAAGGAEDGFFVPPTKGTSPTQIWCNNSQLPVDHILAGSFETAMRLLHDQVGVIQFGPYKQLFLQTYARGRTTYQALPCLPSMYGYPNRNWKDAGLKNGVPAVGLKLNDLIQRLQLCYQLTTVGKFEEAVEKFRSILLSVPLLVVDNKQEIAEAQQLITICREYIVGLSVETERKKLPKETLEQQKRICEMAAYFTHSNLQPVHMILVLRTALNLFFKLKNFKTAATFARRLLELGPKPEVAQQTRKILSACEKNPTDAYQLNYDMHNPFDICAASYRPIYRGKPVEKCPLSGACYSPEFKGQICRVTTVTEIGKDVIGLRISPLQFR
B4: LRRC59 (protein, UniProt Q96AG4 1-307, looked up)
Leucine-rich …: MTKAGSKGGNLRDKLDGNELDLSLSDLNEVPVKELAALPKATILDLSCNKLTTLPSDFCGLTHLVKLDLSKNKLQQLPADFGRLVNLQHLDLLNNKLVTLPVSFAQLKNLKWLDLKDNPLDPVLAKVAGDCLDEKQCKQCANKVLQHMKAVQADQERERQRRLEVEREAEKKREAKQRAKEAQERELRKREKAEEKERRRKEYDALKAAKREQEKKPKKEANQAPKSKSGSRPRKPPPRKHTRSWAVLKLLLLLLLFGVAGGLVACRVTELQQQPLCTSVNTIYDNAVQGLRRHEILQWVLQTDSQQ
B5: ACAD9 (protein, UniProt Q9H845 38-621, looked up)
Complex I assembly factor …: AFAKELFLGKIKKKEVFPFPEVSQDELNEINQFLGPVEKFFTEEVDSRKIDQEGKIPDETLEKLKSLGLFGLQVPEEYGGLGFSNTMYSRLGEIISMDGSITVTLAAHQAIGLKGIILAGTEEQKAKYLPKLASGEHIAAFCLTEPASGSDAASIRSRATLSEDKKHYILNGSKVWITNGGLANIFTVFAKTEVVDSDGSVKDKITAFIVERDFGGVTNGKPEDKLGIRGSNTCEVHFENTKIPVENILGEVGDGFKVAMNILNSGRFSMGSVVAGLLKRLIEMTAEYACTRKQFNKRLSEFGLIQEKFALMAQKAYVMESMTYLTAGMLDQPGFPDCSIEAAMVKVFSSEAAWQCVSEALQILGGLGYTRDYPYERILRDTRILLIFEGTNEILRMYIALTGLQHAGRILTTRIHELKQAKVSTVMDTVGRRLRDSLGRTVDLGLTGNHGVVHPSLADSANKFEENTYCFGRTVETLLLRFGKTIMEEQLVLKRVANILINLYGMTAVLSRASRSIRIGLRNHDHEVLLANTFCVEAYLQNLFSLSQLDKYAPENLDEQIKKVSQQILEKRAYICAHPLDRTC
B6: ATP5J2 (protein, UniProt P56134 2-94, looked up)
ATP synthase F(0) complex …: ASVGECPAPVPVKDKKLLEVKLGELPSWILMRDFSPSGIFGAFQRGYYRYYNKYINVKKGSISGITMVLACYVLFSYSFSYKHLKHERLRKYH
B7: ACSL3 (protein, UniProt O95573 1-720, looked up)
Fatty acid CoA ligase Acsl3: MNNHVSSKPSTMKLKHTINPILLYFIHFLISLYTILTYIPFYFFSESRQEKSNRIKAKPVNSKPDSAYRSVNSLDGLASVLYPGCDTLDKVFTYAKNKFKNKRLLGTREVLNEEDEVQPNGKIFKKVILGQYNWLSYEDVFVRAFNFGNGLQMLGQKPKTNIAIFCETRAEWMIAAQACFMYNFQLVTLYATLGGPAIVHALNETEVTNIITSKELLQTKLKDIVSLVPRLRHIITVDGKPPTWSEFPKGIIVHTMAAVEALGAKASMENQPHSKPLPSDIAVIMYTSGSTGLPKGVMISHSNIIAGITGMAERIPELGEEDVYIGYLPLAHVLELSAELVCLSHGCRIGYSSPQTLADQSSKIKKGSKGDTSMLKPTLMAAVPEIMDRIYKNVMNKVSEMSSFQRNLFILAYNYKMEQISKGRNTPLCDSFVFRKVRSLLGGNIRLLLCGGAPLSATTQRFMNICFCCPVGQGYGLTESAGAGTISEVWDYNTGRVGAPLVCCEIKLKNWEEGGYFNTDKPHPRGEILIGGQSVTMGYYKNEAKTKADFFEDENGQRWLCTGDIGEFEPDGCLKIIDRKKDLVKLQAGEYVSLGKVEAALKNLPLVDNICAYANSYHSYVIGFVVPNQKELTELARKKGLKGTWEELCNSCEMENEVLKVLSEAAISASLEKFEIPVKIRLSPEPWTPETGLVTDAFKLKRKELKTHYQADIERMYGRK
B8: RAB10 (protein, UniProt P61026 1-200, looked up)
Ras-related protein Rab-10: MAKKTYDLLFKLLLIGDSGVGKTCVLFRFSDDAFNTTFISTIGIDFKIKTVELQGKKIKLQIWDTAGQERFHTITTSYYRGAMGIMLVYDITNGKSFENISKWLRNIDEHANEDVERMLLGNKCDMDDKRVVPKGKGEQIAREHGIRFFETSAKANINIEKAFLTLAEDILRKTPVKEPNSENVDISSGGGVTGWKSKCC
B9: RFC1 (protein, UniProt P35251 1-1148, looked up)
Replication factor C subunit 1: MDIRKFFGVIPSGKKLVSETVKKNEKTKSDEETLKAKKGIKEIKVNSSRKEDDFKQKQPSKKKRIIYDSDSESEETLQVKNAKKPPEKLPVSSKPGKISRQDPVTYISETDEEDDFMCKKAASKSKENGRSTNSHLGTSNMKKNEENTKTKNKPLSPIKLTPTSVLDYFGTGSVQRSNKKMVASKRKELSQNTDESGLNDEAIAKQLQLDEDAELERQLHEDEEFARTLAMLDEEPKTKKARKDTEAGETFSSVQANLSKAEKHKYPHKVKTAQVSDERKSYSPRKQSKYESSKESQQHSKSSADKIGEVSSPKASSKLAIMKRKEESSYKEIEPVASKRKENAIKLKGETKTPKKTKSSPAKKESVSPEDSEKKRTNYQAYRSYLNREGPKALGSKEIPKGAENCLEGLIFVITGVLESIERDEAKSLIERYGGKVTGNVSKKTNYLVMGRDSGQSKSDKAAALGTKIIDEDGLLNLIRTMPGKKSKYEIAVETEMKKESKLERTPQKNVQGKRKISPSKKESESKKSRPTSKRDSLAKTIKKETDVFWKSLDFKEQVAEETSGDSKARNLADDSSENKVENLLWVDKYKPTSLKTIIGQQGDQSCANKLLRWLRNWQKSSSEDKKHAAKFGKFSGKDDGSSFKAALLSGPPGVGKTTTASLVCQELGYSYVELNASDTRSKSSLKAIVAESLNNTSIKGFYSNGAASSVSTKHALIMDEVDGMAGNEDRGGIQELIGLIKHTKIPIICMCNDRNHPKIRSLVHYCFDLRFQRPRVEQIKGAMMSIAFKEGLKIPPPAMNEIILGANQDIRQVLHNLSMWCARSKALTYDQAKADSHRAKKDIKMGPFDVARKVFAAGEETAHMSLVDKSDLFFHDYSIAPLFVQENYIHVKPVAAGGDMKKHLMLLSRAADSICDGDLVDSQIRSKQNWSLLPAQAIYASVLPGELMRGYMTQFPTFPSWLGKHSSTGKHDRIVQDLALHMSLRTYSSKRTVNMDYLSLLRDALVQPLTSQGVDGVQDVVALMDTYYLMKEDFENIMEISSWGGKPSPFSKLDPKVKAAFTRAYNKEAHLTPYSLQAIKASRHSTSPSLDSEYNEELNEDDSQSDEKDQDAIETDAMIKKKTKSSKPSKPEKDKEPRKGKGKSSKK
B10: FAF2 (protein, UniProt Q96CS3 2-445, looked up)
FAS-associated factor 2: AAPEERDLTQEQTEKLLQFQDLTGIESMDQCRHTLEQHNWNIEAAVQDRLNEQEGVPSVFNPPPSRPLQVNTADHRIYSYVVSRPQPRGLLGWGYYLIMLPFRFTYYTILDIFRFALRFIRPDPRSRVTDPVGDIVSFMHSFEEKYGRAHPVFYQGTYSQALNDAKRELRFLLVYLHGDDHQDSDEFCRNTLCAPEVISLINTRMLFWACSTNKPEGYRVSQALRENTYPFLAMIMLKDRRMTVVGRLEGLIQPDDLINQLTFIMDANQTYLVSERLEREERNQTQVLRQQQDEAYLASLRADQEKERKKREERERKRRKEEEVQQQKLAEERRRQNLQEEKERKLECLPPEPSPDDPESVKIIFKLPNDSRVERRFHFSQSLTVIHDFLFSLKESPEKFQIEANFPRRVLPCIPSEEWPNPPTLQEAGLSHTEVLFVQDLTDE

Tested on: mSWI/SNF complexes
Test: mSWI/SNF complex purification with HA-tagged baits and mass spectrometry (peptide counts)
Parameters: species or system human
Details: 293_HA-BRD7 bait purification, mass spectrometry; for Total: total peptides per co-purified protein; for Unique: unique peptides per co-purified protein

Molecule	Total	Unique
B1	3	3
B2	3	3
B3	3	3
B4	3	3
B5	3	3
B6	3	3
B7	3	3
B8	3	3
B9	3	3
B10	3	3
